PubChem BioAssay AID743121 – NCATS, 2013
The deposit covers about 26,000 reagents; this is an unselected part. 167 of all reagents (0.63%) were called active. 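Calls are per gene from RSA p-values that are not deposited; an individual active-marked siRNA can sensitise only weakly.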 Entries without a mark were called inactive. The numbers tell different reagents against one gene apart. Not all columns of the deposit are shown.

Purpose: 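Knock-downs that sensitise breast cancer cells to camptothecin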 (primary screen)
System: MDA-MB-231 cells, a human breast cancer line
Reagents: single siRNA against human genes, 20 nM siRNA (0.8 pmol per well)
Duration: 120 h (drug added 48 h after transfection, read 72 h later)
Challenge: camptothecin 20 nM (about EC30) for 72 h; vehicle 0.1% DMSO in parallel plates
Detection: 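Cell viability by ATP luminescence (CellTiter-Glo) as % of non-targeting siRNA wells, and the log2 ratio of viability without drug over viability with camptothecin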
Scale: log2 vehicle/camptothecin viability: higher = stronger sensitisation to camptothecin
Hit rule: 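Each gene scored by redundant siRNA activity (RSA) over its individual siRNA ratios; a gene is called active at p < 0.001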

ADGRE4P #1 → log2 vehicle/camptothecin viability = 0.123
ADGRE4P #2 → log2 vehicle/camptothecin viability = 0.0741
ADGRE4P #3 → log2 vehicle/camptothecin viability = -0.666
ADGRE4P #4 → log2 vehicle/camptothecin viability = -0.424
GRIK4 #1 → log2 vehicle/camptothecin viability = 0.407
GRIK4 #2 → log2 vehicle/camptothecin viability = -0.506
GRIK4 #3 → log2 vehicle/camptothecin viability = -0.199
GRIK4 #4 → log2 vehicle/camptothecin viability = -0.224
MAP2K2 #1 → log2 vehicle/camptothecin viability = 0.123
MAP2K2 #2 → log2 vehicle/camptothecin viability = -0.234
MAP2K2 #3 → log2 vehicle/camptothecin viability = -0.195
MAP2K2 #4 → log2 vehicle/camptothecin viability = -0.0576
MAP2K2 #5 → log2 vehicle/camptothecin viability = 0.00141
MAP2K2 #6 → log2 vehicle/camptothecin viability = -0.295
MAP2K2 #7 → log2 vehicle/camptothecin viability = -0.321
MAP2K2 #8 → log2 vehicle/camptothecin viability = -0.475
GPR32 #1 → log2 vehicle/camptothecin viability = 1.18
GPR32 #2 → log2 vehicle/camptothecin viability = -0.0665
GPR32 #3 → log2 vehicle/camptothecin viability = -0.0878
GPR32 #4 → log2 vehicle/camptothecin viability = -0.302

Individual results from the entries so far:
MAP2K2 #5, log2 vehicle/camptothecin viability → 0.00141
Under “log2 vehicle/camptothecin viability”, MAP2K2 #3 is entered as -0.195
Under “log2 vehicle/camptothecin viability”, GPR32 #2 has -0.0665
Entry for GPR32 #1 in “log2 vehicle/camptothecin viability”: 1.18

Additional reagents follow:
TRPV2 #1 → log2 vehicle/camptothecin viability = 0.144
TRPV2 #2 → log2 vehicle/camptothecin viability = -0.38
TRPV2 #3 → log2 vehicle/camptothecin viability = 0.0364
TRPV2 #4 → log2 vehicle/camptothecin viability = -0.198
PROKR2 #1 → log2 vehicle/camptothecin viability = -0.139
PROKR2 #2 → log2 vehicle/camptothecin viability = 0.664
PROKR2 #3 → log2 vehicle/camptothecin viability = -0.109
PROKR2 #4 → log2 vehicle/camptothecin viability = 0.183
ADAD1 #1 → log2 vehicle/camptothecin viability = -0.118
ADAD1 #2 → log2 vehicle/camptothecin viability = -0.114
ADAD1 #3 → log2 vehicle/camptothecin viability = 0.563
ADAD1 #4 → log2 vehicle/camptothecin viability = -0.242
RAB39B #1 → log2 vehicle/camptothecin viability = -0.228
RAB39B #2 → log2 vehicle/camptothecin viability = 0.281
RAB39B #3 → log2 vehicle/camptothecin viability = -0.615
RAB39B #4 → log2 vehicle/camptothecin viability = -0.588
